Test: pH sensitivity of the calcium dissociation constant (Table 2)
Type: binding
Settings: for effect of the piperazine amino group on pH sensitivity (in words): compared to fura-2; for DKd/pH: pH 6.9 vs pH 7.3, 20° C.
From the text: The calcium dissociation constant of BAPTA-like calcium chelators and indicators is strongly affected by electron withdrawing effects of substituents on the BAPTA aromatic rings. The zwitterionic indicators described herein each contain an ionizable amine. The difference in electron withdrawing effects of the ionized and unionized amine could potentially communicate to BAPTA, creating a situation were the calcium affinity varied with pH. The design of PE3 and FFP18 was aimed at minimizing or eliminating this possibility by insulating the ionizable amine from the BAPTA ring with an aliphatic spacer containing one or more carbons. To test the effectiveness of this design, the calcium Kd of PE3 and FFP18 was measured at different pH values and compared to the values obtained for fura-2. […] Thus, the aim of the test was to determine whether the piperazine amino group gives the indicator increased pH sensitivity.
On page 36 of U.S. Pat. No. 4,603,209 (Tsien, et. al., 1987 Aug. 25), R2 is claimed as H, CH3, F, Cl, Br and […]. The R2 of PE3 and FFP18 is none of these claimed in that patent.

SMILES | effect of the piperazine amino group on pH sensitivity (in words) | DKd/pH
O=C(O)CN1CCN(C(=O)CCc2ccc(N(CC(=O)O)CC(=O)O)c(OCCOc3cc4cc(-c5ncc(C(=O)O)o5)oc4cc3N(CC(=O)O)CC(=O)O)c2)CC1 [PE3] | little difference in pH sensitivity | 65
Cc1ccc(N(CC(=O)O)CC(=O)O)c(OCCOc2cc3cc(-c4ncc(C(=O)O)o4)oc3cc2N(CC(=O)O)CC(=O)O)c1 [fura-2, reference compound] | already slightly pH sensitive | 55
